Reference: publication PMC3022035
Results are given in words; binding and its absence hold for the method and conditions named. In cells and extracts the contact can be indirect.

Target: T1, MKK6, endogenous in hTCEpi cells (human (endogenous in hTCEpi)) (UniProt P52564)
T1 sequence: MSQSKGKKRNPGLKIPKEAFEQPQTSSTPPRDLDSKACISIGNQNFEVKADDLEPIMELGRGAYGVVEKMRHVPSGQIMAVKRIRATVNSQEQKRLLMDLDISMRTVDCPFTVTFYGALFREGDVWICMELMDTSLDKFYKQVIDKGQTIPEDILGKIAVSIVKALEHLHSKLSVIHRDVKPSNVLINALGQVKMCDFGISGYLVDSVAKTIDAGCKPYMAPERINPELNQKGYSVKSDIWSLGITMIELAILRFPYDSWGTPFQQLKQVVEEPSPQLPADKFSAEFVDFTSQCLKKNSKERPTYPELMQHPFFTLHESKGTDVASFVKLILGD
Assay: co-IP; hTCEpi cell lysates (untreated or TNF-α 10 ng/ml) incubated with primary antibodies (anti-p38, anti-IKKβ, anti-MKK6), then protein A agarose at 4°C overnight; Western blot

- binding: no binding
B1: IκB kinase β (IKKβ), endogenous in hTCEpi cells (enzyme, UniProt O14920 1-756)
chain: MSWSPSLTTQTCGAWEMKERLGTGGFGNVIRWHNQETGEQIAIKQCRQELSPRNRERWCLEIQIMRRLTHPNVVAARDVPEGMQNLAPNDLPLLAMEYCQGGDLRKYLNQFENCCGLREGAILTLLSDIASALRYLHENRIIHRDLKPENIVLQQGEQRLIHKIIDLGYAKELDQGSLCTSFVGTLQYLAPELLEQQKYTVTVDYWSFGTLAFECITGFRPFLPNWQPVQWHSKVRQKSEVDIVVSEDLNGTVKFSSSLPYPNNLNSVLAERLEKWLQLMLMWHPRQRGTDPTYGPNGCFKALDDILNLKLVHILNMVTGTIHTYPVTEDESLQSLKARIQQDTGIPEEDQELLQEAGLALIPDKPATQCISDGKLNEGHTLDMDLVFLFDNSKITYETQISPRPQPESVSCILQEPKRNLAFFQLRKVWGQVWHSIQTLKEDCNRLQQGQRAAMMNLLRNNSCLSKMKNSMASMSQQLKAKLDFFKTSIQIDLEKYSEQTEFGITSDKLLLAWREMEQAVELCGRENEVKLLVERMMALQTDIVDLQRSPMGRKQGGTLDDLEEQARELYRRLREKPRDQRTEGDSQEMVRLLLQAIQSFEKKVRVIYTQLSKTVVCKQKALELLPKVEEVVSLMNEDEKTVVRLQEKRQKELWNLLKIACSKVRGPVSGSPDSMNASRLSQPGQLMSQPSTASNSLPEPAKKSEELVAEAHNLCTLLENAIQDTVREQDQSFTALDWSWLQTEEEEHSCLEQAS
